Screening data, single-dose tests

Mtb cholesterol medium: 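Growth of Mycobacterium tuberculosis over 4 days (cholesterol / DPPC medium with tyloxapol); the read-out is not stated. Concentration: 50 µM. Higher reads as more growth inhibition (inferred: compounds with an IC50 in retests scored well above the rest). About 69,000 compounds were tested under these conditions; 0.54% (about 370) showed 50% or more at least once.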
Mtb glucose medium: 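Phenotypic screen: M. tuberculosis growth, glucose 7H9 medium, 3 days; the read-out is not stated. Tested at 50 µM. The record gives no direction; compounds that gave an IC50 in retests scored well above the rest, so higher reads as more growth inhibition. Of about 69,000 compounds tested this way, about 760 (1.1%) reached 50% or more in at least one test.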

Values are the deposited “Percent Effect”, in %. How 0% and 100% were set is not recorded. Most values in the screen are low, and negative values occur. The compounds are a random part of those screened. Two or more numbers in one place are separate tests of the same structure; such repeats can differ widely.

structure: Cc1n[nH]c2ncc(CNC3CCN(Cc4ccccn4)CC3)cc12.Cl
Mtb cholesterol medium: -3.589
Mtb glucose medium: -2.306

structure: COc1ccc(-c2nnc(SC(C)C(N)=O)[nH]2)c(OC)c1 (centres unmarked)
Mtb cholesterol medium: -6.495 & -19.85
Mtb glucose medium: -22.03

structure: CCc1cnc(N)nc1NC(C)c1cnn(C)c1 (centres unmarked)
Mtb cholesterol medium: -16.22
Mtb glucose medium: -15.85

structure: COC(=O)[C@@H]1CCCN1C(=O)c1cn(C/C=C/c2ccccc2)nn1
Mtb cholesterol medium: -15.81
Mtb glucose medium: -24.59

structure: c1cc2c(cc1Cn1cc(C3CCCNC3)nn1)CCCO2 (centres unmarked)
Mtb cholesterol medium: 35.18
Mtb glucose medium: 3.736 & 15.82

structure: CSc1ccc(CNC2(c3ccc(F)cc3)CCOCC2)cc1
Mtb cholesterol medium: 8.883
Mtb glucose medium: 19.81

structure: [H][C@]12CC[C@]([H])(CN(S(=O)(=O)N(C)C)C1)N(CCC(=O)NCc1ccco1)C2
Mtb cholesterol medium: -2.943
Mtb glucose medium: -19.56

structure: Cc1noc(CN(C)CC2(O)CCCN(CCC3CCCCC3)C2=O)n1 (centres unmarked)
Mtb cholesterol medium: 0.6647
Mtb glucose medium: -4.43

structure: CCc1nc(Cn2nc(COC)oc2=O)cs1
Mtb cholesterol medium: 35.28
Mtb glucose medium: 50.48

structure: COc1cc(S(=O)(=O)N2CCCc3ccccc32)cc(C(=O)O)c1OC
Mtb cholesterol medium: 2.99
Mtb glucose medium: 9.803

structure: Cc1cc(Cn2c(=O)c3c(C(F)(F)F)cc(C)nc3n2C)on1
Mtb cholesterol medium: 4
Mtb glucose medium: -7.928

structure: COc1ccccc1NC(=O)NC1(c2noc(CN(C)C)n2)CCCC1
Mtb cholesterol medium: 2.282
Mtb glucose medium: -32.67 & 3.207

structure: Cc1cc(NC(=O)CN2CCOC(Cn3cccn3)C2)n(C)n1 (centres unmarked)
Mtb cholesterol medium: -8.168
Mtb glucose medium: -2.727

structure: CN(C)CCCNC(=O)c1cnc(Cc2ccc(F)cc2)s1
Mtb cholesterol medium: -5.909 & -7.808
Mtb glucose medium: 3.469

structure: Cc1cccc(NC(=O)[C@@H]2CCCN2Cc2ccc(C#N)cc2F)n1
Mtb cholesterol medium: 2.334 & 5.175
Mtb glucose medium: 2.913

structure: O=C(Nc1nncs1)NC1CCc2ccccc21 (centres unmarked)
Mtb cholesterol medium: -4.647
Mtb glucose medium: 21.38

structure: Cc1ccc(C2CSCCN2C(=O)NCc2cccnc2)cc1 (centres unmarked)
Mtb cholesterol medium: -18.27
Mtb glucose medium: 7.066 & -0.5325

structure: Cc1nc(N2CCC(CC(=O)N3CCCC3)CC2)c2cnn(C)c2n1
Mtb cholesterol medium: 0.4761
Mtb glucose medium: -13.97

structure: c1ccc2sc(CN3CCOC(Cn4cccn4)C3)nc2c1 (centres unmarked)
Mtb cholesterol medium: -27.25
Mtb glucose medium: 7.818

structure: CCOc1nnc(CN2CCC(c3cc4ccccc4[nH]3)CC2)s1
Mtb cholesterol medium: 4.24
Mtb glucose medium: 11.18 & 2.143

structure: c1cnc(N2CCCC(c3cc4cccnc4[nH]3)C2)nc1 (centres unmarked)
Mtb cholesterol medium: 11.61
Mtb glucose medium: 4.156

structure: [H][C@]12CC[C@]([H])(CN(Cc3[nH]cnc3C)C1)N(C(=O)CCc1cnn(C)c1)C2
Mtb cholesterol medium: -4.047
Mtb glucose medium: -7.457 & -3.108

structure: CCn1ccnc1CN1CCN(CCOc2ccccc2OC)CC1
Mtb cholesterol medium: 0.2297
Mtb glucose medium: 8.302

structure: COCC(=O)N1CCCC1c1cccc(Cc2ccccc2F)n1 (centres unmarked)
Mtb cholesterol medium: -17.57
Mtb glucose medium: -1.744

structure: CN(C)c1ncnc2c1CCN(S(=O)(=O)c1ccccc1C(F)(F)F)C2
Mtb cholesterol medium: -35.58
Mtb glucose medium: -13.22

3 of the entries, repeated:

{"structure": "COCC(=O)N1CCCC1c1cccc(Cc2ccccc2F)n1", "stereo": "centres unmarked", "Mtb cholesterol medium": -17.57, "Mtb glucose medium": -1.744}
{"structure": "c1cc2c(cc1Cn1cc(C3CCCNC3)nn1)CCCO2", "stereo": "centres unmarked", "Mtb cholesterol medium": 35.18, "Mtb glucose medium": "3.736 & 15.82"}
{"structure": "Cc1cccc(NC(=O)[C@@H]2CCCN2Cc2ccc(C#N)cc2F)n1", "Mtb cholesterol medium": "2.334 & 5.175", "Mtb glucose medium": 2.913}

Measurements from “University of Dundee, Small-Polar-MMV Screening Library” (2021), ChEMBL document CHEMBL3988442.